No constants are given. Whether binding was seen depends on the method and setting. Binding calls can cover weak binding; strength is not graded here.
Biological target: T1, FAT10 (human leukocyte antigen-F-adjacent transcript 10), wild type, full length, unlabeled (human)
T1 sequence: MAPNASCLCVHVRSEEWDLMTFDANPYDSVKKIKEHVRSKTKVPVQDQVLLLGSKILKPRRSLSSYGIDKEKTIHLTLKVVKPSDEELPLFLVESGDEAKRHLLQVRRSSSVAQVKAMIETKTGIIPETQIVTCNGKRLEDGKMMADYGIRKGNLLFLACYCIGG
Assay: SEC-SAXS; NUB1 + FAT10 (50 μM + 55 μM) and NUB1^ΔUBL + FAT10 (50 μM + 55 μM) on a Shodex KW803 column in 60 mM HEPES pH 7.4, 150 mM NaCl, 5% glycerol, 0.5 mM TCEP, 22 °C; scattering compared with AlphaFold-Multimer models; both purified

- binding: binds
Substance: NUB1^ΔUBL (human)

Source: article PMC12285911
